This note sets out measurements from publication PMC8522249.

Protein sequences, listed by entry. Tags and fused reporters are not part of them. Residues count along the entry.
UniProt P60468: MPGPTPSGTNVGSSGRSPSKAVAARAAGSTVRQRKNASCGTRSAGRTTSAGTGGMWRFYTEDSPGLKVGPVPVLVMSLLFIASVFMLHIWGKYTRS
UniProt P05067, residues 672-770: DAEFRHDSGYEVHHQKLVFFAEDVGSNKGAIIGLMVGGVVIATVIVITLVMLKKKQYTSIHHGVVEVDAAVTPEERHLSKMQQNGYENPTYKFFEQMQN
UniProt O94822: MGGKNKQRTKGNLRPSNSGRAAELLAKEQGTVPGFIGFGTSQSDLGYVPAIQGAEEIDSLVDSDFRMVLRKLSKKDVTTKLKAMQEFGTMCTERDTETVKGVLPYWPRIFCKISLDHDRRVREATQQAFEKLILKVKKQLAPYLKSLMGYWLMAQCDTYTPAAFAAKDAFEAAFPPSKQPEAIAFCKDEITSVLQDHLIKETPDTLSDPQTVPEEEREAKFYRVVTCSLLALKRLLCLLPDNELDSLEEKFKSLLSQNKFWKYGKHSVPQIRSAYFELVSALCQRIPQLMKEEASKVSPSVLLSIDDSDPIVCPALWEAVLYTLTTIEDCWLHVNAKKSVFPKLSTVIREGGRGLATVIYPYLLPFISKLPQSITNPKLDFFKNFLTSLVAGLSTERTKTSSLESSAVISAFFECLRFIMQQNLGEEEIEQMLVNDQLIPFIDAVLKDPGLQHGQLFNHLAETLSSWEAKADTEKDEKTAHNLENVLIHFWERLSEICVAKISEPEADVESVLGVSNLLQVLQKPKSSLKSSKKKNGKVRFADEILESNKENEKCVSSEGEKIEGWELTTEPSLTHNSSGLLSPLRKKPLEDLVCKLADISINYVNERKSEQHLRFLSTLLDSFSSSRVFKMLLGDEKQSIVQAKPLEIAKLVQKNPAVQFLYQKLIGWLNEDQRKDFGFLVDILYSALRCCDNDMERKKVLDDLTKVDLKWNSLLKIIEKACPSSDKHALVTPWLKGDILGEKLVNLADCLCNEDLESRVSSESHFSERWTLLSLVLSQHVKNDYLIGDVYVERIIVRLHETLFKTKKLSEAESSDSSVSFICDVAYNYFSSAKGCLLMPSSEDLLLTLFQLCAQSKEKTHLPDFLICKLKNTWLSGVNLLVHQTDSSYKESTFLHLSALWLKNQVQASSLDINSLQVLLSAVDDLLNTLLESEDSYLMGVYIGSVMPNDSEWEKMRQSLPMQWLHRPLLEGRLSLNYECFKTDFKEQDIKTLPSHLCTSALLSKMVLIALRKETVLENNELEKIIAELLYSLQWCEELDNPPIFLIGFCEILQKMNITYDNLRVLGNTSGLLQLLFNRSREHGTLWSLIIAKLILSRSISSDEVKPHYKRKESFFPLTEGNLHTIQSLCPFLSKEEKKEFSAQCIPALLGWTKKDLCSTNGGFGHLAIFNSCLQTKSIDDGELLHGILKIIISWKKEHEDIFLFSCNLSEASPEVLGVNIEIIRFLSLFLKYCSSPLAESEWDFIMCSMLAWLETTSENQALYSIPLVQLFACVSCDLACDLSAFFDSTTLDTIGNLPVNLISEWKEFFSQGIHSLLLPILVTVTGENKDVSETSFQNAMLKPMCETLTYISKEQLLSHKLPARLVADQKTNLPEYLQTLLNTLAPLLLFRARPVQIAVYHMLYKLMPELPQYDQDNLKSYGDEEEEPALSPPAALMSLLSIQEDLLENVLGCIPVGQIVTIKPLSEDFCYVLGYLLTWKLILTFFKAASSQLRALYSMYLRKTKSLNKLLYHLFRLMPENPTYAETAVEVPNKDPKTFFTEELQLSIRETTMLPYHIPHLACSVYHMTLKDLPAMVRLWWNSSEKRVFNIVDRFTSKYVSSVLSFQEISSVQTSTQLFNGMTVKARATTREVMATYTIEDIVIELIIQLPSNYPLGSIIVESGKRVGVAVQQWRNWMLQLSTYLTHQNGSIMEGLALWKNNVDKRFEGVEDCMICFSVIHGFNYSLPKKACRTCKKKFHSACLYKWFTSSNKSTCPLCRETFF

The target in experiment [1] is Sec61B (ER translocon protein) (human (endogenous in HeLa)) (UniProt P60468). Description: pull-down; ER translocon and associated proteins captured on concanavalin A (ConA) agarose beads from extracts or crude membrane fractions of HeLa cells, untransfected or transfected with APP.C99, 2 h at 4 °C; beads also treated with RNase A (1 µg/ml, 37 °C, 30 min) or EDTA (50 mM, on ice, 30 min).

For experiment [2], the target named is APP.C99 (amyloid precursor protein C-terminal fragment), full-length species (human) (UniProt P05067). Put plainly: co-IP; IP of APP.C99 from transfected HeLa cells (the methods list 6E10), protein A/G beads; blots for ribosome-associated QC factors.

These are yes or no findings as the source states them, for the method shown. Binding seen in cells or lysates may run through a third protein. Some entries that bind do so weakly or less than the wild type.

As for Ltn1 (from UniProt O94822 1-1766), the binding entry is “binds” in experiment [1] and “binds weakly” in experiment [2].
